We go through one substance from doi:10.1101/2021.08.26.457770 (bioRxiv, 2021).

Protein sequences, listed by entry. Tags and fused reporters are not part of them.
UniProt P0AFZ3: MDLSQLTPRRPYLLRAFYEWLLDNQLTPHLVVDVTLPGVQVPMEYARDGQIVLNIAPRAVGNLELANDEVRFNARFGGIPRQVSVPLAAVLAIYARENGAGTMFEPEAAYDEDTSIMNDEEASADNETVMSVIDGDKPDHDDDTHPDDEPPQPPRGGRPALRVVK

Assay [1] addresses eGFP-SENYALAA (Escherichia coli). The assay is described as follows: native gel or EMSA. On the technique in general: A gel shift assay detects complexes by their altered migration in electrophoresis.
The target in assay [2] is eGFP-… (Escherichia coli). The assay can be described thus: MST.
Assay [3] addresses eGFP-AANDENY (Escherichia coli). The assay can be described thus: MST.
For assay [4], the target named is eGFP-SENYALAA (Escherichia coli). The assay is described as follows: MST.

These are yes or no findings as the source states them, for the method shown. Some binding calls cover weakened binding; strength is not graded here.

“SspB protein (ClpX adaptor) (from UniProt P0AFZ3 1-165)”: the binding result was “no binding (tested: 8 µM each)” in assay [1], “binds” in assay [2], “binds” in assay [3] and “no binding (tested: SspB up to 122 µM)” in assay [4].
